PubChem BioAssay AID504784, Drosophila RNAi Screening Center – 2011

Screen: 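Search for regulators of lipid droplet storage in oleate-fed fly cells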 (primary screen)
Cells: Drosophila Kc167 embryonic cells
Knock-down reagent: long dsRNA against Drosophila genes, about 250 ng dsRNA per well
Duration: 4 days
Conditions: cells fed 400 µM oleic acid bound to BSA
Read-out: 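Cells imaged and segmented; ratio of lipid droplet area to nuclear area, log-transformed, then normalised as a B-score over the screen; higher means more stored lipid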
Reading the numbers: droplet/nuclear area B-score: higher = more stored lipid (overstorage)
In all, the deposit lists about 17,000 reagents; below is an unselected part of those with a known target gene and a result. 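Each column is one replicate's B-score; the combined score over replicates was not deposited, so single values may mislead.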 Reagents against one gene are numbered here. Names joined by + are all predicted targets of the reagent.

gene	reagent	droplet/nuclear area B-score, replicate 1	droplet/nuclear area B-score, replicate 2	droplet/nuclear area B-score, replicate 3
S-Lap1 (Sperm-Leucylaminopeptidase 1)	1	-0.0442	1.13	
bs (blistered)	1	1.38	-1.67	0.937
bs (blistered)	2	-0.265	-1.02	
tub (tube)	1	0.0599	0.732	-0.903
tub (tube)	2	-2.48	1.23	
Pop4 (POP4 ribonuclease P/MRP subunit)	1	-0.186	-1.41	
CG9452	1	1.04	-0.351	
CG9452	2	0.283	0.638	
ND-23 (NADH dehydrogenase (ubiquinone) 23 kDa subunit)	1	1.84	4.23	
SLIRP1 + anox	1	-1.02	-1.31	
E(spl)m3-HLH (Enhancer of split m3, helix-loop-helix)	1	0.645	1.13	
E(spl)m3-HLH (Enhancer of split m3, helix-loop-helix)	2	0.713	1.59	
CG13245	1	0.105	0.27	
barr (barren)	1	1.91	1.73	
CG30161	1	0.626	1.01	
CG14744	1	0.0568	-0.763	
CG32582 (retired record)	1	-1.07	-1.21	
CG14635	1	-0.631	-0.917	
baf (barrier to autointegration factor)	1	-1.38	-0.293	
CG31206	1	-0.956	0.0323	
PlexA (Plexin A)	1	1.89	-0.691	
Syngr (Synaptogyrin)	1	-0.00107	-0.00252	
Spc25	1	-0.225	-0.31	
prc (pericardin)	1	0.07	-0.0108	
Sgs5 (Salivary gland secretion 5)	1	-0.439	0.574	
CG11686	1	0.0139	-0.547	
St4 (Sulfotransferase 4)	1	0.355	-0.653	
CCAP (Crustacean cardioactive peptide)	1	-3.09	-0.376	
CG32487	1	-0.206	0.508	
ago (archipelago)	1	1.1	0.877	
CG42307 + mus312	1	-1.27	-0.389	
CheA87a (Chemosensory protein A 87a)	1	0.554	-0.547	
Etfb (Electron transfer flavoprotein beta subunit)	1	0.318		
mge (maggie)	1	2.38	1.69	

Limited to “droplet/nuclear area B-score, replicate 1” (4 entries from above):
CG42307 + mus312: -1.27
CheA87a (Chemosensory protein A 87a): 0.554
Etfb (Electron transfer flavoprotein beta subunit): 0.318
mge (maggie): 2.38
